Measurements as given in patent US10913772B2, “Peptide for preventing or treating inflammatory diseases and use thereof” (KINE SCIENCES Co., Ltd., priority 2016, dated 2021).
Part of at least one peptide drawing is inferred or uncertain, most often the ends. No end group written: not given here.

System: collagen-induced arthritis (CIA) mouse model
Assay: Arthritis progression index in collagen-induced arthritis mouse model
Type: in vivo, mouse (DBA/1J)
Conditions: 0.1 μmole vs methotrexate 1 mg/kg
Protocol: In Example 2, using a collagen-induced arthritis mouse model in the following document, a therapeutic effect of a RGD dimer for a representative inflammatory disease, rheumatoid arthritis was confirmed (Nat Protoc. 2007; 2(5):1269-75.).
A collagen-induced arthritis (CIA) mouse model was prepared as follows, as an autoimmune disease-based arthritis model with characteristics similar to human rheumatoid arthritis. […]
In order to investigate the development of arthritis progression according to the peptide treatment of the present invention, the deepening degree of arthritis with time was measured by evaluating an arthritis progression index. Two observers who were unaware of the specific experimental conditions evaluated progression of arthritis three times a week. In this case, the arthritis progression index was evaluated by 0 to 4 scores per leg according to an arthritis progression evaluation standard by Rossoliniec and the like in Table 1 below to be represented by a total of 0 to 16 scores (a sum of four legs), and thereafter, two observers calculated an average value of the evaluated results to digitize the severity of arthritis. […]

## RDGRDG [RDG dimer, RDGRDG]
  arthritis therapeutic effect compared with methotrexate: approximate to the case of treating methotrexate
